# Data as given in patent US20070160526.
# For at least one entry, the source does not settle the construct or the ends of the probe.
# System: MUC1 peptide (immobilised MUC1 selection target)
# Test: SELEX
# Conditions: single-stranded DNA
# [1] = 10 rounds affinity column selection, wash 0.2 M NaHCO3 0.5 M NaCl pH 8.3, eluted 3 M NaSCN
# [2] = affinity column selection, flanks not given
# [3] = 10 rounds affinity column selection
sequence,measurement,setting,value
GGGAGACAAGAATAAACGCTCAACCCTCTGTTCTTATTTGCGAGTTCATTCGACAGGAGGCTCACAACAGGC [Aptamer A (identical to C)],selection result,"10 rounds affinity column selection, found as clones A and C",selected
GGGAGACAAGAATAAACGCTCAATGTTGGTCAGGCGGCGGCTCTACATTTCGACAGGAGGCTCACAACAGGC [Aptamer 4],selection result,[1],selected
GGGAGACAAGAATAAAACGCTCAAGCAGTTGATCCTTTGGATACCCTGGTTCGACAGGAGGCTCACAACAGGC [Aptamer F],selection result,"10 rounds affinity column selection, printed 5' primer region has an extra A",selected
AGAACGAAGCGTTCGACAGGAGGCT [Aptamer L],selection result,[2],selected
GGGAGACAAGAATAAACACTCAACG [Aptamer I],selection result,[2],selected
GGGAGACAAGAATAAACGCTCAAGTTCGACAGGAGGCTCACAACAGGCTTCGACAGGAGGCTCACAACAGGC [Aptamer 3],selection result,[1],selected
GGGAGACAAGAATAAACGCTCAAGTGGCTTACTGCGAGGACGGGCCCATTCGACAGGAGGCTCACAACAGGC [Aptamer E],selection result,[3],selected
AGAAACACTTGGTATATCGCAGATA [Aptamer H],selection result,[2],selected
GGGAGACAAGAATAAACGCTCAACGAATGGGCCCGTCCTCGCTGTAAGTTCGACAGGAGGCTCACAACAGGC [Aptamer 1],selection result,[1],selected
GGGAGACAAGAATAAACGCTCAAAACCCTATCCACTTTTCGGCTCGGGTTCGACAGGAGGCTCACAACAGGC [Aptamer G],selection result,[3],selected
GGGAGACAAGAATAAACGCTCAAGCAACAGGGTATCCAAAGGATCAAATTCGACAGGAGGCTCACAACAGGC [Aptamer 2],selection result,[1],selected
GGGAGACAAGAATAAACGCTCAACTCTGTTCTTATTTGCGAGTTGGTGTTCGACAGGAGGCTCACAACAGGC [Aptamer B],selection result,[3],selected
CGATTTAGTCTCTGTCTCTAGGGGT [Aptamer J],selection result,[2],selected
GGGAGACAAGAATAAACGCTCAATAAGAACAGGGCGTCGTGTTACGAGTTCGACAGGAGGCTCACAACAGGC [Aptamer D],selection result,[3],selected
CGACAGGAGGCTCACAACAGGCAAC [Aptamer K],selection result,[2],selected
